PubChem BioAssay AID602196 | INSERM, 2012

Aim: 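Knock-downs that protect lung cancer cells from cisplatin or sensitise them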
System: human A549 lung cancer cells
Reagent: siRNA pair against human genes
Timing: 48 h transfection before cisplatin; time from cisplatin to read-out not stated
Challenge: cisplatin at a dose killing half of control-siRNA cells; exact dose and duration not given
Measurement: 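Shift in cisplatin death relative to control siRNA, from -50 (all cells die) to +50 (no cells die); siRNAs harmful on their own scored 0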
Reading the numbers: two-siRNA summed score (-2 to +2): higher = both siRNAs protect from cisplatin killing; -2 means both sensitise
Hit rule: 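Each siRNA scores 0 if harmful alone by LDH or WST-1, otherwise +1 if it reduces and -1 if it increases cisplatin killing; a gene is active when both siRNAs agree (sum +2 or -2)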
Meaning of the calls: active = both siRNAs shift cisplatin killing the same way; inactive = no consistent shift, or siRNA harmful alone
The whole screen tested about 23,000 reagents; below is an unselected part. 455 of them (2%) were called active. 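Active includes both protection and sensitisation; some change values fall well beyond the stated -50 to +50 range.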 Not all columns of the deposit are shown. The record does not give: the amount of reagent.

two-siRNA summed score (-2 to +2)	outcome	Target gene
0	inactive	ZNF474
0	inactive	SUZ12
0	inactive	LOC440312
0	inactive	CHRNA9
0	inactive	NINJ2
1	inactive	GPR27
0	inactive	ARCN1
1	inactive	SERTM1
1	inactive	SMARCC2
0	inactive	PRDM16-DT
0	inactive	BMAL2
0	inactive	HSD17B13
0	inactive	LOC388853
0	inactive	SNRNP25
0	inactive	C1QTNF3
0	inactive	DDX52
0	inactive	ZC3H10
0	inactive	LOC440739
-1	inactive	PNLIPRP1
0	inactive	MRPL37
-2	active	TMEM161B
0	inactive	CARD19
0	inactive	OR56A3
1	inactive	TESK1
1	inactive	ZNF235
0	inactive	PSORS1C2
1	inactive	LOC441106
0	inactive	FLJ36492
0	inactive	ACER1
-1	inactive	SLC35E2A
0	inactive	TBC1D26
0	inactive	GALNT13
0	inactive	CYB5R3
1	inactive	ZIC2
0	inactive	LOC391706
0	inactive	DLK1
0	inactive	PGBD4
0	inactive	LOC401911
0	inactive	OLFML2B
1	inactive	FADS3
0	inactive	MCRIP2
0	inactive	RAP2B
0	inactive	LOC390712
0	inactive	KIAA0767
0	inactive	GADD45G
0	inactive	PORCN
0	inactive	ZNF618
-1	inactive	APOF
-1	inactive	USP34
0	inactive	FLJ40311
0	inactive	CD36
1	inactive	ZNF267
0	inactive	NOP9
1	inactive	CAMP
0	inactive	FAM217A
1	inactive	OPN1MW
0	inactive	C1orf35
0	inactive	LOC391370
-1	inactive	ERLIN1
0	inactive	HCFC1R1
-1	inactive	FHIT
0	inactive	PDK2
0	inactive	CDKL2
0	inactive	PAWR
1	inactive	SLC39A3
1	inactive	GALR3
-1	inactive	ARMC10
0	inactive	USO1
0	inactive	LOC400708
1	inactive	CPO
0	inactive	KBTBD12
0	inactive	PCDHGB1
0	inactive	SART1

Records listed so far whose gene name begins with F or f (5):
two-siRNA summed score (-2 to +2)	outcome	Target gene
0	inactive	FLJ36492
1	inactive	FADS3
0	inactive	FLJ40311
0	inactive	FAM217A
-1	inactive	FHIT
